For at least one entry, the source does not settle the construct or the ends of the probe. Negatives hold for the conditions tested. For some assays here: At least one verdict was read from the data and is not stated in words by the source.
Legend:
[1] = system: GST-GhWRKY33 (Gossypium hirsutum); test: EMSA; conditions: Chemiluminescent EMSA Kit (Beyotime), manufacturer's protocol, pH and temperature not stated, recombinant protein, protein details: N-terminal GST
GST = GST (UniProt P08515); test: EMSA; conditions: Chemiluminescent EMSA Kit (Beyotime), manufacturer's protocol; pH and temperature not stated; recombinant protein; label: 5' biotin
[2] = signal decreased by unlabeled WT competitor, label: 5' biotin

Chains of the proteins cited; added tags and fusions are not shown. A line that says so, or that is headed by a name, gives the form on record, which may keep a tag or linker.
UniProt P08515, whole entry: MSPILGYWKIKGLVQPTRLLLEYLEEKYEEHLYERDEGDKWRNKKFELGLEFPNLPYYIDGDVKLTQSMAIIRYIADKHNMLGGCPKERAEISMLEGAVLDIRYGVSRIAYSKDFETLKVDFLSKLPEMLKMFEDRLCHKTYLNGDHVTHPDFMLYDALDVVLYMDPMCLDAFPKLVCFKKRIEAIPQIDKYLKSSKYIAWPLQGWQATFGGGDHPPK
GST-GhWRKY33 (Gossypium hirsutum), one chain, as listed by the source: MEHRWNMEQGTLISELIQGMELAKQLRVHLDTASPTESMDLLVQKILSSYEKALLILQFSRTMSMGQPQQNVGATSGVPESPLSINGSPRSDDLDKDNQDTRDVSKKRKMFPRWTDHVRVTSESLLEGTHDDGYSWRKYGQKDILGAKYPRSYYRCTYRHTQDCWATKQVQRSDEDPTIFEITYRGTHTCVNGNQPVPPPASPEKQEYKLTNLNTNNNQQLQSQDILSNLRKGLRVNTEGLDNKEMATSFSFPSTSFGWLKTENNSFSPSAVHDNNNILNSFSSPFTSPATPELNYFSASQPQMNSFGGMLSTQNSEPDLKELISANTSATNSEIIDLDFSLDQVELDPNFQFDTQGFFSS

Sequence	binding result [1]	binding result [1, 2]	binding result (GST)
ACAATAATTGGTACAAAAATGAAATTTGTAAG (double strand) [m-proGhcysp probe]	no binding	–	–
ACAATAATTGGTACGTCAATGAAATTTGTAAG (double strand) [proGhcysp probe]	–	binds	–
ATTGTGATTTAATTTGTTGACTAGGGCGATT (double strand) [proAtSAG12 probe]	–	binds	no binding
ATTGTGATTTAATTTGTTTTTTAGGGCGATT (double strand) [m-proAtSAG12 probe]	no binding	–	–
